Some of the results follow.
These sequences were tested against T1, OsSMF1 (Oryza sativa, UniProt Q6ZLB0 1-436) (assay: protein-binding microarray (RPBM); PBS, 2% BSA, 51.3 ng/ul salmon testes DNA, 50 uM zinc acetate, 200 nM TF, 25 C, 1 h; high values mean tight binding). Conditions: protein: recombinant; tags: N-terminal polyhistidine and DsRed monomer fusion (pET32a); chain copies: 2; label: CyDye5-dUTP incorporated in the synthesized complementary strand; 3' TTTTT single-stranded linker to array surface; dsDNA, one strand shown.
T1 sequence: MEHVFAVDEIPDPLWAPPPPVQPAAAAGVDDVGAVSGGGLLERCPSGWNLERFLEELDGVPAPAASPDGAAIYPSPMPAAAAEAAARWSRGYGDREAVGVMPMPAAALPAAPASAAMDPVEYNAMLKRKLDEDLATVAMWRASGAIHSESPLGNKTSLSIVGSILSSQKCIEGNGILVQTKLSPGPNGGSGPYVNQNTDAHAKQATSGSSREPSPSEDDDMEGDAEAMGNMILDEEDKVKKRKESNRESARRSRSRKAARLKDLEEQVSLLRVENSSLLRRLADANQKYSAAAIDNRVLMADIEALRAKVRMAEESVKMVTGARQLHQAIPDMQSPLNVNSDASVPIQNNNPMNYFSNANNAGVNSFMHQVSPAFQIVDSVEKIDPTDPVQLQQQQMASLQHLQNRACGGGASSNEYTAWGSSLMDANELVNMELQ
Procedure, shortened: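 In PBS with 2% BSA, salmon testes DNA and 50 µM zinc acetate, 200 nM protein was incubated on a custom Agilent array at 25 °C for 1 h and then washed off. The array had been made double-stranded by primer extension with Cy5-dUTP and blocked with 2% BSA. The proteins were transcription factors fused N-terminally to polyhistidine and DsRed, expressed in E. coli BL21-CodonPlus and purified on Ni–NTA. The binding signal is per-feature fluorescence intensity (arbitrary units) from an Axon 4000B scanner.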

Row | Sequence | binding signal
1 | CCATGTATATATTGGAGCGGGGTGGCGGTGTAGATCAATGCGGAGTCACCTAGTGCAG | 3700 fluorescence intensity (a.u.)
2 | GACAAGCGTGGTGAAGTGGTGGGGAGTTGCGGGAGGGAGGCGGAGTCACCTAGTGCAG | 3630 fluorescence intensity (a.u.)
3 | GATACACAAAGCTACCTAAGGACCTTGTGCGTGACGAGGACGGAGTCACCTAGTGCAG | 4470 fluorescence intensity (a.u.)
4 | TCTCGGCCCGCCGCCGCCTCCTCCGCTCGAGCCGCACCGCCGGAGTCACCTAGTGCAG | 24500 fluorescence intensity (a.u.)
5 | TGCTGCCAGTGACTAATGATAATCTGTCTGCAATTGAGACCGGAGTCACCTAGTGCAG | 4640 fluorescence intensity (a.u.)
6 | GACTGAAGTTTGGATTCAAATTTTGGATCTAGACACAGCCCGGAGTCACCTAGTGCAG | 3210 fluorescence intensity (a.u.)
7 | GCGACGCCACATTCACGGTAATAAGGTGGTAACACGCGTACGGAGTCACCTAGTGCAG | 3560 fluorescence intensity (a.u.)
8 | GCCTCGAGCGTTTATTGCGTGAATGCTCTTTCTGTTGCTGCGGAGTCACCTAGTGCAG | 3400 fluorescence intensity (a.u.)
9 | ATCAAAATGAAAACTCAGGGGTATATAAGGGATGATGTCACGGAGTCACCTAGTGCAG | 3380 fluorescence intensity (a.u.)
10 | TGTGGTGTTGTATATTTTCCGTGTAACAGGGAAAATCATTCGGAGTCACCTAGTGCAG | 3470 fluorescence intensity (a.u.)
11 | CTCTTCTCCACCTCAACATTTAGCCGGCTTATAGCTACTACGGAGTCACCTAGTGCAG | 3960 fluorescence intensity (a.u.)
12 | GCAACCGCGACGACCGATCCACGTGGCACCACCTCATTGGCGGAGTCACCTAGTGCAG | 29400 fluorescence intensity (a.u.)
13 | ATTGTTTTGTCACACGAATAAGGATTATCTCGTTACATGTCGGAGTCACCTAGTGCAG | 3280 fluorescence intensity (a.u.)
14 | ACTGGAGCTAACCGCTGACGTGGCATTCCACGTAGGCAACCGGAGTCACCTAGTGCAG | 42500 fluorescence intensity (a.u.)
15 | TTCGTGCTCCTCCCGTGCCTCTCCCTGGTTGCCCGTGTGGCGGAGTCACCTAGTGCAG | 4000 fluorescence intensity (a.u.)
16 | TGGCCCACATGTCAGTGGGACGTGGCCCAGCTCACCTCGTCGGAGTCACCTAGTGCAG | 7640 fluorescence intensity (a.u.)
17 | CGTCTTTACGTGTTCTCAACTAAGCTTCTTTACGTGTTTTCGGAGTCACCTAGTGCAG | 3900 fluorescence intensity (a.u.)
18 | GATTGTGTCATAGTTCTATAGTTGGAATTTGGTTTATCGTCGGAGTCACCTAGTGCAG | 30800 fluorescence intensity (a.u.)
19 | AAAATCATACGAACGGAAAAGCAAAAGATAGAAGCCAAAACGGAGTCACCTAGTGCAG | 16500 fluorescence intensity (a.u.)
20 | CACGGTCATGGACGACGTACGTACGTGTCTCCTCCATAAACGGAGTCACCTAGTGCAG | 4460 fluorescence intensity (a.u.)
21 | ATCTCCTTGATTGCCACATCAACAGAACCGCGAACCATATCGGAGTCACCTAGTGCAG | 4430 fluorescence intensity (a.u.)

Row | Sequence | binding signal
22 | GATCCGGGACTCATCCCACGTGCCGCCTCGCCACCGCCGCCGGAGTCACCTAGTGCAG | 3750 fluorescence intensity (a.u.)
23 | GAGACCGGTTATGACGCGACGGAGAAGACGTGGGCACGCGCGGAGTCACCTAGTGCAG | 3820 fluorescence intensity (a.u.)
24 | AGTTGGTGGTGGCTTGGATGGATCCAACGTGGCATTTCCACGGAGTCACCTAGTGCAG | 14800 fluorescence intensity (a.u.)
25 | CCTTAGCCTGGCTTAATTACCACATCAGCTCATTAATGGCCGGAGTCACCTAGTGCAG | 4360 fluorescence intensity (a.u.)
26 | TCCAAGCTGACACCGCGACCCCACCGGCGTCGCGGTGGCTCGGAGTCACCTAGTGCAG | 3320 fluorescence intensity (a.u.)
27 | CGTCTCCCTGCGCCGCCTCCCCTCCCTTCTCTCCCCATTCCGGAGTCACCTAGTGCAG | 3360 fluorescence intensity (a.u.)
28 | AGACCCACGTCAGCGCCATTCAAGTCCATTCCTCCGTCACCGGAGTCACCTAGTGCAG | 19700 fluorescence intensity (a.u.)
29 | GGGTAGGGTTGTGAGTTTGTGACGTCGTCCCCTGCAAAACCGGAGTCACCTAGTGCAG | 3480 fluorescence intensity (a.u.)
30 | GCCGCCACCCACCCACAACCACCGCCGCCTCCGCTCCAGACGGAGTCACCTAGTGCAG | 3510 fluorescence intensity (a.u.)
31 | CACGCATGTGGTGACTTCGTCAATTTCTCTAGGATTTGCCCGGAGTCACCTAGTGCAG | 3750 fluorescence intensity (a.u.)
32 | TAGCTGATTTAACAACCGCCCGTTTCTTATTTTCGGGAATCGGAGTCACCTAGTGCAG | 32100 fluorescence intensity (a.u.)
33 | ACTCACCTGCTGATAACCAGACGCTAAATTGGCAATTGTACGGAGTCACCTAGTGCAG | 38100 fluorescence intensity (a.u.)
34 | TGTGCCACGTGGGAGCAAACACACCTGGCATAGGCCCAAGCGGAGTCACCTAGTGCAG | 4200 fluorescence intensity (a.u.)
35 | GCACGCCGTTCCATTCCAAGTCAACGTGACAAACCAACCGCGGAGTCACCTAGTGCAG | 3380 fluorescence intensity (a.u.)
36 | GTTGCAGCGTCACGCTTTGCGTACTTGTGCTTGTGGGCATCGGAGTCACCTAGTGCAG | 5800 fluorescence intensity (a.u.)
37 | GGTCAAGAGCGCATCCAGCATGTCGTCGTGTACCTGACCGCGGAGTCACCTAGTGCAG | 3720 fluorescence intensity (a.u.)
38 | CTTCAATGAATACAAAAGAAGTGTTTTGACTACAAGTACTCGGAGTCACCTAGTGCAG | 25600 fluorescence intensity (a.u.)
39 | CGGCTTGTGCACTACATGCACACGCTGCCAACTCATGTACCGGAGTCACCTAGTGCAG | 4390 fluorescence intensity (a.u.)
40 | GGCGCGTGGGTTGCCCGCGACCGCGACGTGGCGTTCGTGGCGGAGTCACCTAGTGCAG | 6210 fluorescence intensity (a.u.)
41 | CGCGCCGCGCCGCTGCACAAGAATCCAACCGGTGGTGGTGCGGAGTCACCTAGTGCAG | 3240 fluorescence intensity (a.u.)
42 | CCCACGACCACCGGCCAGGCGTGGCCCCACATGTCATCCTCGGAGTCACCTAGTGCAG | 4510 fluorescence intensity (a.u.)

Part of the list above, as comma-separated lines:
Row,Sequence,binding signal
28,AGACCCACGTCAGCGCCATTCAAGTCCATTCCTCCGTCACCGGAGTCACCTAGTGCAG,19700 fluorescence intensity (a.u.)
29,GGGTAGGGTTGTGAGTTTGTGACGTCGTCCCCTGCAAAACCGGAGTCACCTAGTGCAG,3480 fluorescence intensity (a.u.)

Source: article PMC7819943, “Rice protein-binding microarrays: a tool to detect cis-acting elements near promoter regions in rice”
